# Values from PubChem BioAssay AID686943 (Drosophila RNAi Screening Center, 2013).
# Purpose: 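Search across the genome for regulators of signalling from receptor tyrosine kinase to ERK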 (primary screen)
# Cell system: Drosophila S2R+ haemocyte-like cells expressing YFP-tagged ERK (Rolled)
# Knock-down reagent: long dsRNA against Drosophila genes
# Challenge: insulin stimulation versus unstimulated cells; dose and duration not given
# Detection: 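Antibody staining for doubly phosphorylated ERK divided by ERK-YFP signal, as plate z-scores, in insulin-treated and untreated cells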
# Reading the numbers: replicate 1, z-score of dpERK with insulin and replicate 2, z-score of dpERK with insulin: higher = more active ERK per ERK-YFP after insulin; replicate 1, z-score of dpERK under basal conditions: higher = more basal active ERK per ERK-YFP; replicate 1, z-score of ERK-YFP with insulin: higher = more YFP-tagged ERK signal
# The deposit covers about 23,000 reagents; shown is a random part of those that have a named target and a result. 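Extra replicates exist only for a retested subset of genes; insulin dose and duration not given; both raised and lowered dpERK matter.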 Names joined by + are all predicted targets of the reagent. Reagent sequences are not shown. The record does not give: the amount of reagent, the time to read-out.
predicted target,dsRNA,"replicate 1, z-score of dpERK with insulin","replicate 2, z-score of dpERK with insulin","replicate 1, z-score of dpERK under basal conditions","replicate 1, z-score of ERK-YFP with insulin"
rdog,DRSC14431,-0.03,-0.39,0.79,0.39
CG4424,DRSC15576,2.2,0.17,-0.35,-0.1
GILT1,DRSC16565,0.46,0.46,-0.14,0.86
Gr85a,DRSC12760,-0.3,0.01,1.16,0.08
salto,DRSC06291,0.06,0.2,0.92,0.31
CG9518,DRSC20194,0,0.75,-0.07,0.35
Cyp1,DRSC20234,-0.99,-0.63,1.13,-0.11
CG15014,DRSC08468,-0.8,-0.95,-0.49,-0.47
CG3630,DRSC18499,0.04,0.03,0.28,-0.36
CG8927,DRSC16458,-0.58,0.32,-0.92,0.62
CG16989,DRSC18535,-0.49,-0.18,0.13,-0.08
COX6CL,DRSC00895,-1.23,1.07,1.29,-0.26
uri,DRSC04111,-4.46,-2.85,-0.2,0.58
CG32694,DRSC17844,-0.22,-0.05,0.33,-0.69
CG32694,DRSC17855,-1.04,0.13,-1.03,1.27
CG32694,DRSC22670,-0.93,0.5,0.18,0.4
RpS15,DRSC07151,0.48,-2.07,-0.56,-4.97
CG8117,DRSC20082,-0.42,-1.27,-1.82,-0.91
spn-A,DRSC16812,-0.01,0.11,-0.38,1.14
APP-BP1,DRSC10920,0.19,0.32,0.32,0.37
Cyp6a16Psi (retired record),DRSC03307,0.83,0.21,0.31,-1.34
CG42656,DRSC12472,1.89,0.34,-1.05,-0.28
Scgbeta,DRSC15854,0.63,0.6,0.51,0.53
CG6565,DRSC02970,-0.16,-0.25,-1.9,0.9
tbrd-2,DRSC07020,-0.24,0,0.62,0.18
CG5404,DRSC15793,1.18,0.21,-0.57,0.62
frac,DRSC10867,0.05,0.22,-0.09,-0.01
thoc7,DRSC08512,-0.15,-0.2,0.25,0.46
Fer1HCH,DRSC16671,0.31,-0.27,1.18,0.68
Nha2,DRSC14689,0.52,-0.12,-0.09,0.29
Nha2,DRSC15619,-1.85,-0.2,0.01,-1.12
Nha2,DRSC15623,0.32,0.14,0.79,-0.42
sol,DRSC20587,2.7,1.42,0.71,0.89
Acam + CG17770,DRSC14110,0.16,0.28,0.2,0.26
Acam + CG17770,DRSC15264,-0.07,0.13,1.61,0.57
GlyRS,DRSC10711,-0.37,-0.01,0.44,0.55
CG11977,DRSC14454,-0.85,-1.18,-0.6,-1.35
BBS1,DRSC10196,-1,-0.65,0.75,1.65
Grx1,DRSC10727,0.09,-0.45,-0.9,-0.29
Cyt-c-d,DRSC03309,-0.18,-0.23,0.15,0.18
lark,DRSC11362,-0.46,0.52,0.11,1.12
CG17199,DRSC15192,-0.14,0.27,0.5,-0.12
Rtel1,DRSC18343,-0.41,-0.4,0.02,0.19
Cpr47Ec,DRSC07332,0.71,0.32,-0.37,-0.58
VhaAC39-1,DRSC18242,0.82,0.53,3.02,0.92
CG15747,DRSC19713,1.24,0.2,0.97,-0.62
ich,DRSC12715,-0.7,-0.37,-1.01,0.48
ich,DRSC14448,0.1,0.44,0.28,0.17
SIFa,DRSC04480,0.73,-0.58,-0.41,-0.34
sced,DRSC04990,0.52,1.41,-0.28,0.56
CG34396,DRSC04245,-1.32,-0.72,-1.75,0.9
CG34396,DRSC04246,-0.25,0.17,-0.13,-0.24
CG8032,DRSC16365,0.31,1.11,1.38,-0.23
CG15221,DRSC19659,0.58,0.4,0.06,0.18
CG1847,DRSC19810,-0.68,-0.03,-0.07,0.6
tkv,DRSC00860,0.58,0.13,3.93,0.18
tkv,DRSC03623,0.53,0.39,-0.37,-1.67
tkv,DRSC22606,0.57,0.32,-0.58,-0.52
al,DRSC00799,0.72,1.15,1.69,-0.15
Vang,DRSC07570,1.09,0.59,0.22,-0.11
CG31288,DRSC14667,0.15,-0.52,-0.4,0.49
Or49a,DRSC07493,-0.07,0.44,-0.05,0.03
CG16890,DRSC01890,-0.38,-0.53,0.09,0
Muc91C,DRSC16297,0.81,0.74,0.82,0.2
Muc91C,DRSC21696,1.61,2.45,-1.51,-0.57
E(bx),DRSC08172,0.15,-0.18,-0.64,-0.25
E(bx),DRSC08509,-0.85,-0.1,-1.57,-1.46
E(bx),DRSC08583,-0.49,-0.22,-2.17,-1.58
CG13228,DRSC06348,1.1,-0.09,-0.77,-0.5
CG12177,DRSC19437,1.6,0.22,-0.7,-1.05
CG12177,DRSC21524,-0.07,1.67,-1.77,0.26
CG2694,DRSC18470,0.4,-0.57,-0.44,-0.96
NdufA3,DRSC18431,-0.12,0.68,1.12,0.75

Copied from the listing for reference:
predicted target,dsRNA,"replicate 1, z-score of dpERK with insulin","replicate 2, z-score of dpERK with insulin","replicate 1, z-score of dpERK under basal conditions","replicate 1, z-score of ERK-YFP with insulin"
CG1847,DRSC19810,-0.68,-0.03,-0.07,0.6
tkv,DRSC00860,0.58,0.13,3.93,0.18
tkv,DRSC03623,0.53,0.39,-0.37,-1.67
tkv,DRSC22606,0.57,0.32,-0.58,-0.52
al,DRSC00799,0.72,1.15,1.69,-0.15
Vang,DRSC07570,1.09,0.59,0.22,-0.11
